Counter-ions that a name gives are not always drawn. Some of the results follow. This data set is noisy: repeats of one test often differ as much as different tests do.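 Cells: ReNCell VM human fetal ventral-midbrain neural progenitors, differentiated mitogen-free. Blinded raters compared doublecortin-stained (early neurons) or tyrosine hydroxylase-stained (dopaminergic neurons) images with untreated wells, where 0 means no change. After repeats and both raters were averaged, compounds scoring 2 or above became hits for retesting.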
System: ReNCell VM
Test: dopaminergic neuron differentiation score (TH+ cell fraction vs untreated, manual image score) (score (0 to 3)); higher = more TH+ dopaminergic neuron differentiation
Details: library: LOPAC; 2 uM; 4 weeks; BDNF 10 ng/ml + GDNF 10 ng/ml

Dopaminergic neuron differentiation score, inactive:
CCCCCCCCCCCCCCCC(=O)OC(CC(=O)O)C[N+](C)(C)C (racemic) [Palmitoyl-DL-Carnitine chloride] 0
CCC(=O)N1CCN(C(=O)c2ccccc2)CC1 0
N=C(N)SCCc1ccc(CCSC(=N)N)cc1 [1,4-PBIT dihydrobromide] 0
CO[C@@]1(NC(=O)CSCC#N)C(=O)N2C(C(=O)O)=C(CSc3nnnn3C)CS[C@@H]21 [Cefmetazole sodium] 0
N[C@@H](Cc1c[nH]cn1)C(=O)O [L-Histidine hydrochloride] 0
NOCC(=O)O [O-(Carboxymethyl)hydroxylamine hemihydrochloride] 0

Same assay, conditions: library: Phytochemical; 2 uM; 4 weeks; BDNF 10 ng/ml + GDNF 10 ng/ml

Dopaminergic neuron differentiation score, inactive:
CCOC(=O)Oc1c(OC)cc(C(=O)O[C@@H]2C[C@@H]3CN4CCc5c([nH]c6cc(OC)ccc56)[C@H]4C[C@@H]3[C@H](C(=O)OC)[C@H]2OC)cc1OC [Syrosingopine] 0
CN1CC[C@]23c4ccccc4N[C@H]1[C@]21CCN(C)[C@H]3Nc2ccccc21 [Calycanthine] 0
OC[C@H]1O[C@@H](n2cnc3c(NCc4ccco4)ncnc32)[C@H](O)[C@@H]1O [Kinetin riboside] 0
